Our source for the binding values is publication doi:10.1101/779520.

Results are given in words; binding and its absence hold for the method and conditions named. In cells and extracts the contact can be indirect. Where a sequence is shown, tags or fusion partners need not be part of it.

The target of this test is T1, HEK293T-expressed HA peptide (mCherry-P2A-HA).
T1 sequence (peptide): YPYDVPDYA
Put plainly: pull-down.

Turning to “protein kinase C α (from UniProt P20444 1-672) (enzyme)”, the binding entry is “no binding”.
